Measurements reported in PubChem BioAssay AID652259 (Drosophila RNAi Screening Center, 2013).

Assay: 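Knock-downs that push a Wingless-driven reporter up or down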 (primary screen)
Cells: Drosophila clone 8 imaginal disc epithelial cells
Knock-down reagent: long dsRNA against Drosophila genes
Treatment: pathway stimulated by co-transfected Wingless expression plasmid
Detection: 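Dual luciferase reads per well after Wingless plasmid stimulation: reporter firefly light and Renilla control light; activity is firefly divided by Renilla, a ratio not deposited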
Scale: firefly reporter light: higher = more Wg reporter light, before normalisation; Renilla control light: higher = more transfected or surviving cells
Call rule: 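Strong candidates differ from their plate mean by at least two out of four per-plate statistical tests; weak candidates meet just one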
Meaning of the calls: active = candidate regulator (raises or lowers reporter); inactive = not a candidate
The deposit covers about 22,000 reagents; shown is an unselected part of those that have a named target and a result. Over the whole deposit, 233 (1.1%) were called active. 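Light values are raw, unnormalised plate reads; the ratio scores behind the reporter calls were not deposited.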 Not given: the amount of reagent, the time to read-out, the dose of the treatment.

predicted target | DRSC id | reporter change call, replicate 1 | firefly reporter light, replicate 1 | firefly reporter light, replicate 2 | Renilla control light, replicate 1 | Renilla control light, replicate 2 | Call
shrb | DRSC07061 | – | 12058 | – | 1625 | – | inactive
Cdk5alpha | DRSC03290 | – | 2345 | 6320 | 715 | 2816 | inactive
CG12713 | DRSC09900 | – | 4196 | – | 1627 | – | inactive
CG14221 | DRSC19578 | – | 16109 | – | 10280 | – | inactive
CG4622 | DRSC04479 | – | 4891 | – | 1159 | – | inactive
CG17739 | DRSC06689 | – | 10115 | – | 2948 | – | inactive
Trm7-34 | DRSC16171 | – | 20731 | – | 6067 | – | inactive
Vha36-1 | DRSC07098 | – | 23730 | – | 6498 | – | inactive
CG44837 | DRSC10133 | – | 4624 | – | 1667 | – | inactive
CG44837 | DRSC10558 | – | 4901 | – | 2275 | – | inactive
CG32267 | DRSC21561 | – | 5.18e5 | 4.93e5 | 1.20e5 | 1.11e5 | inactive
Nf-YC | DRSC18272 | – | 24888 | – | 1975 | – | inactive
CG7246 | DRSC18422 | – | 3376 | – | 1426 | – | inactive
jvl | DRSC13053 | – | 3913 | – | 1090 | – | inactive
jvl | DRSC15495 | – | 10898 | – | 3109 | – | inactive
FRG1 | DRSC10648 | – | 16507 | – | 6469 | – | inactive
ND-PDSW | DRSC00715 | – | 12026 | – | 5171 | – | inactive
Kdm3 | DRSC16393 | – | 7216 | – | 2842 | – | inactive
Osi7 | DRSC12176 | – | 15952 | – | 3844 | – | inactive
CG15278 | DRSC02481 | – | 2865 | 9355 | 1248 | 3882 | inactive
CG18810 | DRSC02701 | – | 2166 | 7922 | 682 | 2912 | inactive
GstD10 | DRSC15346 | – | 9046 | – | 2920 | – | inactive
shf | DRSC18283 | – | 15541 | – | 7652 | – | inactive
Prp19 | DRSC07434 | – | 6096 | – | 2001 | – | inactive
gny | DRSC02810 | – | 6818 | – | 2060 | – | inactive
CG9902 | DRSC20212 | – | 17275 | – | 7665 | – | inactive
kni | DRSC11891 | – | 14370 | – | 4633 | – | inactive
CG6044 | DRSC04522 | – | 3456 | 6374 | 528 | 2512 | inactive
CG32202 | DRSC09989 | – | 8288 | – | 2470 | – | inactive
Prosalpha3T | DRSC15226 | – | 6281 | – | 2952 | – | inactive
DCTN2-p50 | DRSC07132 | – | 14289 | – | 2781 | – | inactive
ccb | DRSC20501 | – | 15067 | – | 10790 | – | inactive
AGO2 | DRSC09999 | – | 2692 | – | 423 | – | inactive
AGO2 | DRSC10847 | – | 3190 | – | 884 | – | inactive
Obp57e | DRSC05891 | – | 25640 | – | 17372 | – | inactive
CG13062 | DRSC09945 | – | 6981 | – | 3091 | – | inactive
Dbp21E2 | DRSC00616 | – | 9911 | – | 4608 | – | inactive
alpha-Man-Ic | DRSC21674 | – | 6.31e5 | 5.48e5 | 2.98e5 | 2.12e5 | inactive
Ntf-2 | DRSC20552 | – | 5003 | 11116 | 839 | 3104 | inactive
Jon65Aiii | DRSC10649 | – | 4343 | – | 2384 | – | inactive
CG3732 | DRSC04410 | – | 13730 | – | 2220 | – | inactive
Hsc70-4 | DRSC16711 | – | 9260 | – | 1868 | – | inactive
Rdh | DRSC08063 | – | 1909 | – | 310 | – | inactive
Rdh | DRSC08434 | Wg reporter activity raised | 4086 | – | 871 | – | inactive
Bmcp | DRSC10808 | – | 8889 | – | 3491 | – | inactive
Tbce | DRSC04897 | – | 12537 | – | 3796 | – | inactive
Akh | DRSC08138 | – | 7389 | – | 2499 | – | inactive
CG2898 | DRSC18238 | – | 13836 | – | 8907 | – | inactive
Sap47 | DRSC16850 | – | 2999 | 7130 | 944 | 1449 | inactive
